PubChem BioAssay AID1347076 (National Center for Advancing Translational Sciences (NCATS), 2019)
Out of some 400,000 compounds screened, about 13,000 (3.2%) were called active. The shares of active, inactive and inconclusive entries below differ from those in the screen. Calls follow the shape of the dose curve; as a rule, active = well fitted cell-killing curve with a large enough effect; inconclusive = small, poorly fitted or top-dose-only effect, or effect the other way; inactive = flat fitted curve, though single readings scatter. A potency beside an inconclusive call is a rough fit, not a confirmed value.

Assay: qHTS assay for MDR1-selective chemotherapeutics: Primary screen using the drug-selected MDR subline cells KB-V1; also: nearly all actives have a fitted effect of over 60% in size
Settings: KB-V1 MDR cells viability, CellTiter-Glo, 72 h; series mostly up to 46.1 µM
Procedure, shortened: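 KB-V1 MDR subline cells in DMEM (phenol-red free, 10% FBS) exposed to compounds in qHTS concentration series for 72 h at 37 degrees C. Viability read by CellTiter-Glo luminescence; concentration-effect curves fitted after normalization and correction.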
Potency is read from the fitted curve at half-maximal effect.

Row | Structure (SMILES) | Potency
1 | Fc1ccc(-c2nnn(Cc3ccccc3Cl)n2)cc1 | inconclusive: 29.1 µM [cytotoxic, single point]
2 | C#CCNC(=O)C1CCN(c2ccc(S(=O)(=O)N3CCOCC3)cc2Cl)CC1 | inconclusive: 23.1 µM [cytotoxic, partial curve]
3 | C/C(=N\NC(=O)COc1cc(C)cc(C)c1)c1ccc(N2CCOCC2)cc1 | inconclusive: 20.6 µM [cytotoxic, single point]
4 | COc1ccc(Cl)cc1C(=O)NNC(=O)CNC(=O)c1ccco1 | inconclusive: 16.4 µM [rising, single point]
5 | Cc1cc(C)c(C(=O)c2ccc(C(=O)N(C(C)C)C(C)C)cc2)c(C)c1 | active: 16.4 µM
6 | Cc1cccc(-n2ncc3c2CCCC3NC(=O)C2=CC(=O)CC(C)(C)O2)c1C (stereo unspecified) | inconclusive: 8.2 µM [cytotoxic, partial curve]
7 | CCOC(=O)c1ccc(NC(=O)c2ccccc2N(C)S(=O)(=O)c2ccccc2)cc1 | inconclusive: 23.1 µM [cytotoxic, partial curve, poor fit]
8 | Cc1cc(NCc2ccccc2)nc(-c2ccccc2O)n1 | active: 16.4 µM
9 | O=C(CN1C(=O)NC2(CCCCC2)C1=O)Oc1ccc2c(C(F)(F)F)cc(=O)oc2c1 | inconclusive: 29.1 µM [rising, single point]
10 | COc1ccc(CC(=O)OCC(=O)Nc2cccc(Br)c2)cc1 | inconclusive: 20.6 µM [cytotoxic, single point]
11 | O=c1[nH]c(CN2CCN(S(=O)(=O)/C=C/c3ccccc3)CC2)nc2ccccc12 | inactive
12 | O=C(OCC(=O)N1CCCc2ccccc21)c1cccc(S(=O)(=O)N2CCc3ccccc32)c1 | inconclusive: 23.1 µM [cytotoxic, single point]
13 | CC(C)c1ccc(COc2ccc(C(=O)N3CCOCC3)cc2)cc1 | inconclusive: 29.1 µM [cytotoxic, single point]
14 | Cc1nn(Cc2ccc(C(=O)N3N=C(C(F)F)CC3(O)C(F)F)cc2)c(C)c1[N+](=O)[O-] (stereo unspecified) | active: 8.2 µM
15 | CCN(CC)CCCNC(=O)Cc1csc2nc(-c3ccc(Cl)cc3)cn12 | inactive
16 | CC1CCCN(CCCNS(=O)(=O)c2ccc3c(c2)CCN3C(=O)C2CC2)C1 (stereo unspecified) | inactive
17 | CN(CCC1CCOCC1)C(=O)CC1C(=O)NCCN1Cc1ccoc1 (stereo unspecified) | inconclusive: 11.6 µM [rising, partial curve]
18 | CCN1CCN(c2ccc(S(=O)(=O)N3CCCCC3)cc2NC(=O)c2ccc([N+](=O)[O-])s2)CC1 | inconclusive: 29.1 µM [cytotoxic, single point]
19 | O=C(CN1C(=O)CCn2nc(-c3ccccc3)cc21)NCc1ccc(Cl)cc1 | inactive
20 | Cc1cccc(CCNC(=O)c2cc3c(=O)n(C)c4ccccc4c3n2C)c1 | inactive
21 | COc1cc2c(cc1OC)C(=O)N1[C@H]3c4cc(C)ccc4OC[C@@H]3[C@H](c3ccccc3)[C@]1(C)C(=O)N2 | inconclusive: 23.1 µM [cytotoxic, partial curve]
22 | COc1ccccc1N1CCN(C(=O)c2c(C)oc3ncn(C)c(=O)c23)CC1 | inactive

Row | Structure (SMILES) | Potency
23 | CCCCc1ccc(C2C3=C(CC(C)(C)CC3=O)NC3=C2C(=O)c2ccccc23)cc1 (stereo unspecified) | active: 16.4 µM
24 | CC1(C)CC2CC(C)(CN2S(=O)(=O)c2cccc(C(=O)OCC(=O)NC(N)=O)c2)C1 (stereo unspecified) | inactive
25 | COc1ccc(NC(=S)N2CCc3ccccc3C2)cc1 | inconclusive: 18.4 µM [cytotoxic, single point]
26 | Cc1cc(C)c(NN=c2c(=O)c3ccccc3c2=O)c(C)c1 | inconclusive: 3.66 µM [cytotoxic, full curve]
27 | CCCCN(C=O)c1c(CC)nc2ccc(C(=O)Nc3cc(-c4ccccc4)ccc3OC)cn12 | active: 23.1 µM
28 | COc1ccc(OC)c(NC(=O)c2oc3ccccc3c2NC(=O)C2CC2)c1 | inconclusive: 0.0073 µM [cytotoxic, full curve, poor fit]
29 | C[C@H]1CN([C@@H](C)CO)C(=O)c2c(c3ccccc3n2C)-c2ccccc2CO[C@H]1CN(C)C(=O)[C@@H]1CCCN1C | inconclusive: 0.0073 µM [rising, full curve, poor fit]
30 | Cc1nn(C)cc1CNC(=O)c1cc2n(n1)C(C(F)(F)F)CC(c1cccs1)N2 (stereo unspecified) | inconclusive: 29.1 µM [cytotoxic, single point]
31 | O=C(c1ccoc1)N1CCCC(CO)(CCCc2ccccc2)C1 (stereo unspecified) | inconclusive: 32.6 µM [cytotoxic, partial curve, poor fit]
32 | COC(=O)c1ccc2nc(-c3ccc(Cl)cc3)c(Cc3ccc(OC)cc3C)n2c1 | inconclusive: 5.8 µM [cytotoxic, partial curve]
33 | Clc1cccc(Cc2c(C3CCCCC3)nc3ccc(Cl)cn23)c1 | inactive
34 | O=C(NNS(=O)(=O)c1ccc(CCCl)cc1)C(O)(c1ccccc1)c1ccccc1 | active: 16.4 µM
35 | O=C(Nc1ccccc1)c1cc2n(n1)C(C(F)(F)F)CC(C1CC1)N2 (stereo unspecified) | inactive
36 | COC(=O)c1sc(N2C(=O)c3oc4ccccc4c(=O)c3C2c2cccs2)nc1C (stereo unspecified) | inconclusive: 16.4 µM [cytotoxic, single point]
37 | COc1ccc(NC2=C(c3ccccc3)C(=O)c3ccccc32)cc1Cl | inactive
38 | c1ccc(-n2cnc3ccccc32)cc1 | inconclusive: 20.6 µM [rising, single point]
39 | O=C(c1ccc(F)cc1)N1CCC(c2nc3ccccc3s2)CC1 | inconclusive: 6.51 µM [cytotoxic, partial curve]
40 | OC1(c2cccnc2)CCN(Cc2nnnn2Cc2ccccc2)CC1 | inactive
41 | FC(F)(F)c1cc(-c2ccccc2)nc(-n2cc(Cl)cn2)n1 | inconclusive: 18.4 µM [cytotoxic, partial curve, poor fit]
42 | CC(C)c1ccc(N(CC(=O)NCc2ccco2)C(=O)CCC(=O)Nc2ccccn2)cc1 | inconclusive: 16.4 µM [cytotoxic, partial curve]
43 | Cc1csc2c(N3CCN(C(=O)c4ccc(C(C)(C)C)cc4)CC3)ncnc12 | inconclusive: 7.31 µM [cytotoxic, partial curve]
44 | CC1CCC2(CC1)NC(=O)N(CC(=O)NC(=O)Nc1ccc3c(c1)OCCO3)C2=O (stereo unspecified) | inactive

Row | Structure (SMILES) | Potency
45 | Cc1cc(C(=O)N/N=C/c2ccc(O)c([N+](=O)[O-])c2)n[nH]1 | inconclusive: 20.6 µM [rising, single point]
46 | COc1ccc(N(C)C(=O)c2cn(CC(C)C)c(=O)c3cc(OC)c(OC)cc23)c(OC)c1 | inconclusive: 3.26 µM [cytotoxic, partial curve, poor fit]
47 | COc1ccc(OC)c(N2C(=O)CC(Cc3cc(C)cc(C)c3)C2=O)c1 (stereo unspecified) | inconclusive: 0.0065 µM [cytotoxic, full curve, poor fit]
48 | CC(=O)N1CCN(C(=O)OC2CC3CC2[C@H]2CCCCN2C3=O)CC1 (stereo partly specified) | inconclusive: 32.6 µM [rising, partial curve, poor fit]
49 | Cc1cc(N/N=C/c2cccc(F)c2)nc(NCc2ccccc2)n1 | inconclusive: 20.6 µM [cytotoxic, partial curve, poor fit]
50 | C[C@@H]1C(=O)O[C@H]2[C@H]1CC[C@@]1(C)C(=O)C=C[C@@](C)(O)[C@H]21 | inactive
51 | COc1ccc(CN(C)CC(=O)Nc2ccccc2C(F)(F)F)c(OC)c1 | inconclusive: 11.6 µM [cytotoxic, partial curve]
52 | CCCCCCn1cc(CN(C)C2CN(Cc3cn(CCCCCC)nn3)S(=O)(=O)C2)nn1 (stereo unspecified) | inconclusive: 9.2 µM [cytotoxic, partial curve]
53 | COc1ccccc1CCC(=O)Oc1ccccc1C#N | inconclusive: 0.461 µM [rising, full curve, poor fit]
54 | COc1ccc(/C=C/C(=O)NC(=S)Nc2ccc(S(=O)(=O)N=C(N)N)cc2)cc1OC | inconclusive: 20.6 µM [rising, single point]
55 | CNc1oc(-c2cccs2)nc1S(=O)(=O)c1ccccc1 | inconclusive: 16.4 µM [cytotoxic, single point]
56 | O=C(/C=C/c1ccc(Cl)c([N+](=O)[O-])c1)c1ccc(O)cc1 | inconclusive: 18.4 µM [cytotoxic, single point]
57 | COc1ccc(C(=O)OCC(=O)c2ccccc2)cc1S(=O)(=O)N1CCOCC1 | inconclusive: 18.4 µM [cytotoxic, partial curve, poor fit]
58 | Cc1onc(-c2ccccc2Cl)c1C(=O)OCc1cnc(Cl)s1 | inconclusive: 18.4 µM [cytotoxic, single point]
59 | O=C(NCCC(=O)N1CCN(S(=O)(=O)c2ccc(Cl)cc2)CC1)Nc1ccccc1 | inactive
60 | Cc1ccccc1CNC(=O)c1ccccc1N(C)S(=O)(=O)c1ccccc1 | inconclusive: 13 µM [cytotoxic, partial curve, poor fit]
61 | CS(=O)c1ccc(/C=C2\C=Cc3ccccc32)cc1 (stereo unspecified) | inactive
62 | CCOC(=O)[C@H]1[C@H]2COc3ccc(Cl)cc3[C@@H]2N2C(=O)c3ccc(Cl)cc3NC(=O)[C@@]12C | inactive
63 | COc1ccc([N+](=O)[O-])cc1NC(=O)C(C)OC(=O)C1c2ccccc2Oc2ccccc21 (stereo unspecified) | active: 9.2 µM
64 | CCCCCCCCN1C(=O)[C@H](CC(=O)NCCCCc2ccccc2)C[C@@]2(C(=O)OCC)CCCC=C12 | inconclusive: 23.1 µM [cytotoxic, partial curve, poor fit]
65 | Nc1ncnc(Sc2ccc(Cl)cc2)c1[N+](=O)[O-] | inactive
66 | C/C(=N\N1CCN(C2c3ccccc3-c3ccccc32)CC1)c1ccncc1 | active: 18.4 µM

Some of these compounds in order of count of non-hydrogen atoms, smallest number first:
Row | Structure (SMILES) | Potency
56 | O=C(/C=C/c1ccc(Cl)c([N+](=O)[O-])c1)c1ccc(O)cc1 | inconclusive: 18.4 µM [cytotoxic, single point]
47 | COc1ccc(OC)c(N2C(=O)CC(Cc3cc(C)cc(C)c3)C2=O)c1 (stereo unspecified) | inconclusive: 0.0065 µM [cytotoxic, full curve, poor fit]
59 | O=C(NCCC(=O)N1CCN(S(=O)(=O)c2ccc(Cl)cc2)CC1)Nc1ccccc1 | inactive
62 | CCOC(=O)[C@H]1[C@H]2COc3ccc(Cl)cc3[C@@H]2N2C(=O)c3ccc(Cl)cc3NC(=O)[C@@]12C | inactive
